## Library screening results

Protein sequences, listed by entry. Tags and fused reporters are not part of them.
UniProt E9BF75, entry or part of it: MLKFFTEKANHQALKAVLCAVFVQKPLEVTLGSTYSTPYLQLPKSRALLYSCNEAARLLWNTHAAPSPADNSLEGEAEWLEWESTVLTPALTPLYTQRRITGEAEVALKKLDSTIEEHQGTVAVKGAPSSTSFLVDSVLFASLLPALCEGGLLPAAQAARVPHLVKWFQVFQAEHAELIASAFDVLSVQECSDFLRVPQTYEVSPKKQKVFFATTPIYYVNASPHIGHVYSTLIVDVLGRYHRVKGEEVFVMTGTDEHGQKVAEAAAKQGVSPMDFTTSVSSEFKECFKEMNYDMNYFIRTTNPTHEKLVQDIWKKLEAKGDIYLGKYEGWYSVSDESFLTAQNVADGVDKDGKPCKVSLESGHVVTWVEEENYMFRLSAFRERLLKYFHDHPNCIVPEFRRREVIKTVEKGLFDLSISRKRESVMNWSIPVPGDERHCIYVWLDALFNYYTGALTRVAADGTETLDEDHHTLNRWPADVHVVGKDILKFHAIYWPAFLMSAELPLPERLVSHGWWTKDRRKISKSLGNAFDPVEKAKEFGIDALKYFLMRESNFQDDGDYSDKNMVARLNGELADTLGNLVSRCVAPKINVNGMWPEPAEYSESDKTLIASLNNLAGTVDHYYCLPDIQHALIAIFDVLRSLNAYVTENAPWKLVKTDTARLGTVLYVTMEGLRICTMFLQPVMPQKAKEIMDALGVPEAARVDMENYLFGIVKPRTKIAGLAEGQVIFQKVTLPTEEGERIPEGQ

Source: ChEMBL document CHEMBL3988442, “University of Dundee, Small-Polar-MMV Screening Library” (2021).

All values are in %. The record does not define 0% and 100%; most values in the screen are far below 50% and negative numbers occur (in some assays of this library far below -100). The compounds are a random part of those screened. A dash means the value is not listed here; it may have been measured.

LdMetRS: 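Methionyl-tRNA synthetase (putative), Leishmania donovani (UniProt E9BF75). Primary screen of methionyl-tRNA synthetase; the read-out is not stated. The test concentration is not given. Values are per cent inhibition. About 68,000 compounds were tested under these conditions; 0.035% (about 24) showed 50% or more at least once.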
Mtb heat-shock: 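Assay on Mycobacterium tuberculosis, filed only as a heat shock assay from Cornell; the read-out is not stated. The concentration is filed as 10 mM, unlikely as a test dose, so the dose is not known. Higher reads as stronger inhibition (inferred: compounds with an IC50 in retests scored well above the rest). Of about 69,000 compounds tested this way, about 930 (1.4%) reached 50% or more in at least one test.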

structure | LdMetRS | Mtb heat-shock
O=C(O)C(F)(F)F.[H][C@@]12CCCO[C@]1([H])[C@H](Oc1ccccn1)CN2S(C)(=O)=O | - | 15.58%
Cc1cnc2n(c1=O)C(CC(=O)NCc1ccccc1Cl)CS2 (stereo not shown) | 5.634% | 4.222%
COCCN1CC[C@]2(CN(Cc3cccnc3)C[C@H]2C)C1=O | 11.86% | -
COc1cccc(CNC(=O)Nc2ccc3[nH]nnc3c2)c1OC | 14.66% | -0.2327%
Cn1cccc1C1CCCN1C(=O)NCCCn1cccn1 (stereo not shown) | 10.73% | 22.69%
O=C(O)C(F)(F)F.O=C(c1ccnnc1)N1CC[C@]2(C[C@H](Oc3ncccc3F)CO2)C1 | - | -54.67%
[H][C@@]12CC[C@H](Oc3ccccc3F)[C@]1([H])CN(C(=O)c1cnco1)C2 | - | 6.755%
CCOC(=O)[C@H]1[C@@H](O)C(=O)N(C)C12CCN(C(=O)CC(C)C)CC2 | 10.54% | 2.664%
CCc1nccn1CC(=O)Nc1cccc(C(=O)N(C)C)c1 | 4.301% | -15.78%
[H][C@@]12CCCO[C@]1([H])[C@H](OCc1cccnc1)CN2C(=O)c1ccncc1 | - | -17.76%
CCOc1ncccc1C(=O)NCC(O)c1ccc(F)c(F)c1 (stereo not shown) | 11.82% | -14.74%
CC(C)OCc1nn(CC2CC2)c2c1CN(Cc1ccco1)CC2 | -0.5556% | -
CC(=O)c1ccc(N2CCN(C(=O)c3cc(C(C)C)nn3C)CC2)cc1 | 14.43% | -4.661%
COc1ccc(CNC(=O)NCc2ccc(C(N)=O)cc2)cn1 | 16.67% | 28.24%
O=C(Nc1cccnc1N1CCSCC1)c1ccc2c(c1)OCO2 | 14.01% | -26.5%
CC(C)NC(=O)C1CN(C(=O)Nc2ccc(F)cc2)CC12CCOCC2 (stereo not shown) | 6.667% | -27.96%
O=C(CCN1C(=O)CCC1=O)Nc1ccc(Oc2ccc(Cl)cc2)nc1 | 14.66% | 9.479%
Cc1ccc(CC(=O)NCC(O)c2ccc(Cl)cc2Cl)cn1 (stereo not shown) | 3.509% | -4.542%
CN1CC(c2ccccc2)C2(CCN(C(=O)c3cccn3C)CC2)C1=O (stereo not shown) | 0.346% | -17.83%
CCc1nc(CN2CCCC(NCc3nc4cccnc4[nH]3)C2)no1 (stereo not shown) | -3.286% | -2.757%
CN(C)C(CNc1c(NCc2ccco2)c(=O)c1=O)c1ccccc1 (stereo not shown) | 8.943% | 6.159%
Cc1noc([C@]23COC[C@H]2CN(S(C)(=O)=O)C3)n1 | 16.29% | -
CCC1CCCN(Cc2nc(N)c3ccccc3n2)C1 (stereo not shown) | 14.29% | -40.88%
[H][C@]12CNC[C@@]1(C(=O)NCCOc1ccccc1F)CN(C(C)=O)C2 | - | -19.01%
O=C(c1ccc(-c2ccccc2)[nH]c1=O)N1CCCn2ncnc21 | 16.09% | -1.14%
CS(=O)(=O)N1C[C@@H]2COC[C@]2(CN2CCOCC2)C1 | 12.57% | -
Cc1cccc(NC(=O)c2nn(C3CCS(=O)(=O)C3)c3c2CCCC3)n1 (stereo not shown) | 14.73% | -0.1679%
COc1cccc(CC(=O)N2Cc3nccn3CC(CN(C)C)C2)c1 (stereo not shown) | 11.04% | -33.91%
Cc1c(Cn2cc(Cl)c(N)n2)cnn1C | 9.023% | 4.902%
COCC1CC2(CCN(c3ccccn3)CC2)CN1C(C)C.O=C(O)C(F)(F)F.O=C(O)C(F)(F)F (stereo not shown) | - | -2.762%
COc1ccc(CN2CCOC3(CCCN(C(C)=O)C3)C2)cc1 (stereo not shown) | 19.26% | -
Cc1cc(N2CCN(Cc3cn(C)nc3C)CC2)cc(C2CCNC2)n1.Cl (stereo not shown) | - | -5.922%
CCN1CCOC(CNCc2cnc(N(CC)CC)s2)C1 (stereo not shown) | 12.15% | 1.314%
NC(=O)c1csc(C(=O)N2CCCC(n3cccn3)C2)c1 (stereo not shown) | 20.22% | -24.93%
Cc1nn(C)c(Cl)c1C1CCCN1C(=O)c1cccn1C (stereo not shown) | 10.83% | 5.759%
CN(C)S(=O)(=O)N1CC[C@@H]2CN(Cc3cnn(C)c3)C[C@@H]2C1 | 7.843% | -
CC(NC(N)=O)C(=O)N(C)Cc1cccc(C(F)(F)F)c1 (stereo not shown) | 1.393% | -17.64%
CC(=O)N1CC[C@H]2CC(=O)N(C3CC3)CC[C@H]2C1 | 11.54% | -
O=C(NC1CC1)[C@H]1CC[C@@H]2[C@@H](CCN2Cc2ccsc2)O1 | 6.667% | -
O=C(c1c[nH]cn1)N1CCCn2c(nnc2Cn2cccc2)C1 | 17.02% | 17.07%
Cc1cnn(CC2CN(Cc3nc4ccccc4c(=O)[nH]3)CCO2)c1 (stereo not shown) | 6.077% | 8.669%
COCCN(Cc1ccccc1Cl)c1nc(CCN)nc2ccccc12 | 30.22% | 49.21%
CCSc1cc(C(=O)NCc2ccccc2O)ccn1 | 3.448% | 9.892%
CC(C)NC1CCc2c(ccc(=O)n2CCN2CCOCC2)C1 (stereo not shown) | 8.711% | -
COc1ccccc1CC(C)(C)C(=O)NCC(=O)Nc1cccnc1 | 10.3% | -2.12%
N#Cc1cnc2ccccc2c1N1CCN(CCC(=O)O)CC1 | 14.78% | -
Cc1ccc(N2CCCC(NCc3ccncc3)C2)nn1 (stereo not shown) | 3.472% | -8.827%
Cn1cnc2cc(CCC(=O)Nc3n[nH]c(C4CCCO4)n3)ccc21 (stereo not shown) | 8.467% | 0.7134%
CCc1nc(C)cn1C(=O)Nc1ccccc1 | 7.838% | -1.886%
COCCN1CCc2cc(C(=O)O)c(-c3ccoc3)nc2CC1 | 9.841% | -
Cc1cc(C)n(C2CCN(Cc3nc4ccccc4n3C)CC2)n1 | 20.89% | -15.39%
Cc1cc(C(=O)NCC(=O)NC(c2ncccc2C)C(C)C)c(C)o1 (stereo not shown) | 6.183% | 10.02%
O=C(O)C(F)(F)F.O=C(O)C(F)(F)F.[H][C@@]12C[C@@H](Oc3cncnc3)CN1CCN(Cc1nccn1C)C2 | - | -10.18%
CCc1noc(CNc2cc3c(cc2Cl)OCCCO3)n1 | -3.727% | -11.33%
CN1CCCCC1C(=O)N1CCN(c2ccccc2C#N)CC1 (stereo not shown) | 7.843% | -23.21%

5 of the entries, repeated:

With Cc1nn(C)c(Cl)c1C1CCCN1C(=O)c1cccn1C (stereo not shown) the screen gave LdMetRS: 10.83%; Mtb heat-shock: 5.759%.
With Cc1c(Cn2cc(Cl)c(N)n2)cnn1C the screen gave LdMetRS: 9.023%; Mtb heat-shock: 4.902%.
With CC(NC(N)=O)C(=O)N(C)Cc1cccc(C(F)(F)F)c1 (stereo not shown) the screen gave LdMetRS: 1.393%; Mtb heat-shock: -17.64%.
With O=C(CCN1C(=O)CCC1=O)Nc1ccc(Oc2ccc(Cl)cc2)nc1 the screen gave LdMetRS: 14.66%; Mtb heat-shock: 9.479%.
With CCc1nc(C)cn1C(=O)Nc1ccccc1 the screen gave LdMetRS: 7.838%; Mtb heat-shock: -1.886%.